# Source: PubChem BioAssay AID720505 (Drosophila RNAi Screening Center, 2013)
# Test: 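Knock-downs that reduce calcium influx once internal stores are emptied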 (primary screen)
# Cell system: Drosophila S2R+ cells
# Reagents: long dsRNA against Drosophila genes
# Treatment: thapsigargin (2 µM) in calcium-free buffer to empty internal stores, then 2 mM calcium added back
# Measured: 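Stores emptied by 2 µM thapsigargin without calcium, then 2 mM calcium re-added; fluo-4 fluorescence followed by FLIPR in 384-well plates, per-well averaged endpoint, raw; two screen passes, some wells retested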
# Reading the numbers: calcium signal and retest calcium signal: higher = more calcium entry after store depletion
# Active means: 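Knock-downs counted as hits when calcium entry dropped relative to STIM1 positive and Rho1 negative controls present on each plate; roughly 1500 genes called, with reductions of differing size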
# Meaning of the calls: active = called as lowering calcium entry; inactive = not called
# In all, the deposit lists about 20,000 reagents; below is a random part of those that have a named target and a result. Of all reagents, about 2,100 (10%) were called active. 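Raw plate signals without normalisation; calls rest on control-based scores that were not deposited; replicate 2 separates called from uncalled poorly.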 A number with no mark means an inactive call. Names joined by + are all predicted targets of the reagent. Not stated in the record: the amount of reagent, the time to read-out.
gene,DRSC id,"calcium signal, replicate 1","calcium signal, replicate 2","retest calcium signal, replicate 1","retest calcium signal, replicate 2"
Dhc98D (GeneID 43379),DRSC16645,128,128,,
CG43088 (GeneID 12797977),DRSC19055,82.3,104,,
CG43088 (GeneID 12797977),DRSC21407,191,104,,
Cdc45 (GeneID 31052),DRSC17747,106,139,,
Cdc45 (GeneID 31052),DRSC18164,73.3,152,,
CG32812 (GeneID 31074),DRSC18478,99.9,128,,
Acsx1L (GeneID 42351),DRSC16014,134,138,,
CG7968 (GeneID 34802),DRSC01903,129,84.3,,
CG10344 (GeneID 37565),DRSC04066,105,154,,
SCCRO (GeneID 39685),DRSC10844,55.8 (active),64.2,,
CG30122 (GeneID 37146),DRSC06776,43 (active),98.3,,
CG30122 (GeneID 37146),DRSC06935,201,172,,
CG5861 (GeneID 34965),DRSC02907,64.2 (active),80.5,,
beta-PheRS (GeneID 42888),DRSC15859,129,374,,
CG2147 (GeneID 31759),DRSC18211,161,94.8,,
flap (GeneID 37519),DRSC03918,76.9,5708,,
flap (GeneID 37519),DRSC04087,114,150,,
spab (GeneID 35901),DRSC07112,108,105,,
Flacc (GeneID 32886),DRSC20040,206,142,,
Tmx3 (GeneID 39775),DRSC10471,85.5,80,,
stumps (GeneID 41770),DRSC15332,148,138,,
stumps (GeneID 41770),DRSC17073,157,126,,
shakB (GeneID 33062),DRSC20420,64.3,68.8,,
shakB (GeneID 33062),DRSC20423,55.7 (active),72.2,105,87.5
shakB (GeneID 33062),DRSC20492,111,83.5,,
shakB (GeneID 33062),DRSC20585,74.6 (active),139,,
shakB (GeneID 33062),DRSC21445,63.4,94.2,,
shakB (GeneID 33062),DRSC22817,95.9,85.7,,
CG11211 (GeneID 35545),DRSC04851,170,215,,
CG43996 + CG43997,DRSC19456,93.5,124,,
CG43996 + CG43997,DRSC19457,117,131,,
Nadk2 (GeneID 35918),DRSC07072,172,122,,
PIG-F (GeneID 40139),DRSC11069,124,149,,
boca (GeneID 48986),DRSC06408,121,131,,
inaF-A (GeneID 5740676),DRSC19660,104,81.2,,
CG34205 (GeneID 37526),DRSC04149,187,90.2,,
CG34205 (GeneID 37526),DRSC22823,106,87.3,,
RpS3A (GeneID 43768),DRSC17168,94.7,124,,
Rsph4a (GeneID 37831),DRSC04338,169,75.3,,
CG32278 + CG14963,DRSC22203,89.8,242,,
CG2931 (GeneID 40673),DRSC12324,134,172,,
CG7560 (GeneID 39276),DRSC10879,107,91.7,,
CG43329 (GeneID 12798461),DRSC11672,92.4,123,,
Pop1 (GeneID 31475),DRSC17739,109,93.6,,
Ufc1 (GeneID 36762),DRSC07156,164,127,,
beat-Ia (GeneID 34947),DRSC03489,120,124,,
CIA30 (GeneID 43503),DRSC16266,105,108,,
CG34393 (GeneID 33534),DRSC00419,97.7,149,,
CG34393 (GeneID 33534),DRSC00710,114,130,,
CG14881 (GeneID 41990),DRSC15005,133,134,,
CG4945 (GeneID 36850),DRSC06904,148,144,,
r2d2 (GeneID 34066),DRSC03014,99.5,178,,
CG7611 (GeneID 40386),DRSC11840,68.2 (active),44.2,99.6,96.8
alpha-Est7 (GeneID 40901),DRSC12619,103,130,,
Cyp317a1 (GeneID 36667),DRSC07366,159,171,,
dsb (GeneID 38252),DRSC08407,65,77.8,,
dsb (GeneID 38252),DRSC08542,74.7,111,,

Called active (from the list above):
gene,DRSC id,"calcium signal, replicate 1","calcium signal, replicate 2","retest calcium signal, replicate 1","retest calcium signal, replicate 2"
SCCRO (GeneID 39685),DRSC10844,55.8 (active),64.2,,
CG30122 (GeneID 37146),DRSC06776,43 (active),98.3,,
CG5861 (GeneID 34965),DRSC02907,64.2 (active),80.5,,
shakB (GeneID 33062),DRSC20423,55.7 (active),72.2,105,87.5
shakB (GeneID 33062),DRSC20585,74.6 (active),139,,
CG7611 (GeneID 40386),DRSC11840,68.2 (active),44.2,99.6,96.8
